Data published in patent US5137905A, “Heterocyclic acetylenic amines having central nervous system activity” (The Upjohn Company, priority 1991, dated 1992).
Like-named read-outs stand apart in the source and are kept apart here. At least one read-out could not be matched to a standard name with certainty.

Tests used:
[1] = molecular target: CNS cholinergic receptor; settings: read-out: CNS Cholinergic Receptor Binding Assays K1 QNB
[2] = molecular target: CNS cholinergic receptor; test: CNS cholinergic receptor binding, oxotremorine M ligand; settings: tritiated oxotremorine M; read-out: CNS Cholinergic Receptor Binding Assays K1 Oxotremorine

CC(C#CCN1CCCC1)N1CCN(C)C1=O (centres unmarked) [Compound 22, 1-Methyl-3-[1-methyl-4-(1-pyrrolidinyl)-2-butynyl]-2-imidazolidinone]
Ki [1]: 130 nM | Ki [2]: 13 nM
